Test results published in article PMC11927960, “Multiparameter ranking of carbazoles for anti-trypanosome lead discovery” (Frontiers in drug discovery, 2024).

Key:
[1] = Plasma pharmacokinetics after single oral dose; format: in vivo, Swiss Webster mice; settings: female mice Cmax vs EC50 of T. brucei AnTat1.1
Method: The plasma concentration and tissue distribution of drugs were determined by Absorption Systems. […] Blood and brain samples were obtained at 1, 2, 4, and 6 h post-dosing, and plasma and brain concentrations of the drug were determined using LC-MS/MS. Stock standards for calibration were prepared in a matrix comprising equal volumes of water and mouse blood containing K2-EDTA as an anticoagulant. Working solutions were prepared in 50:50 acetonitrile–water and added to the matrix to final concentrations of 1,000, 500, 100, 50.0, 10.0, 5.00, 1.00, and 0.500 ng/mL for all compounds. Pharmacokinetic parameters were determined using Phoenix WinNonlin (v8.0) software with sparse sampling. Maximum plasma concentration (Cmax) and the time to reach maximum plasma concentration (tmax) were determined from the four data points. The area under the time concentration curve (AUClast) was calculated using the linear trapezoidal rule with calculation to a 6-h data point. Plasma half-life (t1/2) was calculated from 0.693/slope of the terminal elimination phase. Samples below the limit of detection (0.500 ng/mL) were treated as 0.

[2] = Curaxin HAT lead efficacy (CHLE) score; settings: for CHLE Score: empirical multiparameter formula of Table 5; for DTC90: AUC0–6h: ratio used for CHLE score, AUC0–6h from mouse PK, DTC90 from T. brucei

Compound | Cmax fold higher than EC50 of T. brucei AnTat1.1 [1] | CHLE Score [2] | DTC90: AUC0–6h [2]
CC(=O)c1cc2c3cc(C(C)=O)c(O)cc3n(CCNC(C)C)c2cc1O [CBL0187, 1-[6-acetyl-2,7-dihydroxy-9-[2-(isopropylamino)ethyl]carbazol-3-yl]ethanone] | 31 fold | 17.8 | 5.3
CC(=O)c1cc2c3cc(C(C)=O)c(O)cc3n(CCCN(C)C)c2cc1O [CBL0174, 1-[6-acetyl-9-[3-(dimethylamino)propyl]-2,7-dihydroxy-carbazol-3-yl]ethanone] | 28 fold | 41.3 | 5.4
